Results are given in words; binding and its absence hold for the method and conditions named. Some entries that bind do so weakly or less than the wild type.
Biological target: N^L21… (… with L21E) (N. benthamiana)
Assay: native gel or EMSA; BN-PAGE (NativePAGE 4-16% Bis-Tris) of 1% digitonin extracts of nrc2/3/4_KO N. benthamiana leaves at 2 dpi; NRC3 variant co-expressed with Rpi-blb2 and AVRblb2

binding: binds
B1: N^L21… (… with L21E) (natural protein, N. benthamiana, UniProt A0A5J6DCA3 1-888, looked up)
chain: MADVAADVAVKFLVENLMQLEIDNADLIIGIKGEVENLLQDLNDFNAFLKQAAKSRRDNEVLKSLVKKIRKVVNDAEDSIDKFVIEAKRHDDKNKFAQWFHLTHVARAKGVADEIKTIRERVKEIRQNDAYGLQAITSYDNFNQGAQERKVPVVEEDDVVGFDDEAKTVIDRLIGGSDYVVPVVGMPGLGKTTLAYKIFKDPKVEYEFFNRIWVYVSQSFKRREIFLNIISKFTRNTKQYHDTPEEELANEIKELLGKGGKYLVVLDDVWTREAWDRIKIAFPNNNKRNRVLMTTRQNNVAKSCNDKPHDLKFLTENESWELLEKRVFHKEKCPFELELPGKSIAKKCRGLPLAIVVIAGALIGKGKTTREWELVADSVGEHLINRDPENCKKLVQMSYDRLPYDLKACFLYCGAFPGGSEISAQKLICLWIAEGFIQYQGPLTLEDIAEDHLNDLVNRNLVMVMKRSSSGQIKTCRVHDMLHEFCRHEAMMEENLFQEIKRGQEHSFPEKQELASYRRLCIHSSVSEFLSTKPFAEHVRSFLCFASKKFEMPLGEIPAIPRAFPLLRVLDAESIKFSRFSREFFKLFHLRYIAFSTDSIMTIPTNIGNLWNVQTLIIETQQGTLDIKADIWNMTRLRHVCTNASATLPSPKRPKSSKDNLVNRCLQTLSTIAPECCTAEVFTRTPNLKKLGVRGKIDALLETSKDGSSSGLFSNIGKLDCLEKLKLVNDTRQSRKQLHLPPAYIFPQKLKKLTLIDTWFEWKDMSILGLLEYLEVLKLKENAFRGQSWEPEDSGFPRLQVLWIERTDLSSWKASSGNFPRLKHLVLIACDKLKELPAELADVENLQLMELQSTSVSAAKSARAILKKKQQKVGSGFKLSVFPPDLGL
notes: L21E is named only in the methods of the BN-PAGE; source: nrc2/3/4_KO N. benthamiana leaves, agroinfiltrated, in digitonin extract
